PubChem BioAssay AID1508588 | Peter MacCallum Cancer Centre | 2020
Aim: 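Knock-downs boosting vemurafenib effects on melanoma cell growth or lactate release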 (primary screen). System: human WM266.4 melanoma cells (BRAF V600 mutant). Reagent: siRNA pool against human genes, 40 nM. Timing: 96 h from transfection to read-out. Challenge: vemurafenib 300 nM (about IC25), added 48 h after transfection, for 48 h; comparison arm got DMSO vehicle only. Detection: 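Cell gain (DAPI nuclei at end minus before drug, mean of two replicates) and medium lactate by absorbance per cell, both as ratio to non-targeting siRNA, also grouped into fold-change classes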. Direction: cell gain with vemurafenib: higher = more cell gain than with non-targeting siRNA; lactate per cell with vemurafenib: higher = more lactate made per cell. Active means: 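a knock-down counts as enhancing when its fold-change classes with vehicle and with vemurafenib, taken together, show a stronger drug effect on cell gain or lactate per cell; exact class pairs not stated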. Calls: active = enhances vemurafenib effect; inactive = no enhancement seen.
The deposit covers about 18,000 reagents; below is an unselected part. Over the whole deposit, 790 (4.4%) are marked active. 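Calls rest on a combination of fold-change classes in drug and vehicle arms, not all shown here.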

RAB40AL (RAB40A like) — cell gain with vemurafenib = 0.72; lactate per cell with vemurafenib = 1.4; outcome = inactive
SGK1 (serum/glucocorticoid regulated kinase 1) — cell gain with vemurafenib = 1.15; lactate per cell with vemurafenib = 0.92; outcome = inactive
LINC02914 (long independently transcribed non-coding RNA 2914) — cell gain with vemurafenib = 0.16; lactate per cell with vemurafenib = 1.69; outcome = inactive
LRFN3 — cell gain with vemurafenib = 0.05; lactate per cell with vemurafenib = 1.4; outcome = inactive
DNAJB1 (DnaJ heat shock protein family (Hsp40) member B1) — cell gain with vemurafenib = 0.67; lactate per cell with vemurafenib = 1.17; outcome = inactive
ST3GAL4 (ST3 beta-galactoside alpha-2,3-sialyltransferase 4) — cell gain with vemurafenib = 0.47; lactate per cell with vemurafenib = 1.14; outcome = inactive
LCN12 (lipocalin 12) — cell gain with vemurafenib = 1.09; lactate per cell with vemurafenib = 0.68; outcome = inactive
MTHFR (methylenetetrahydrofolate reductase) — cell gain with vemurafenib = 0.68; lactate per cell with vemurafenib = 0.66; outcome = inactive
SPHK2 (sphingosine kinase 2) — cell gain with vemurafenib = 0.98; lactate per cell with vemurafenib = 1.1; outcome = inactive
C1orf105 (chromosome 1 open reading frame 105) — cell gain with vemurafenib = 0.72; lactate per cell with vemurafenib = 0.8; outcome = inactive
PLXDC2 (plexin domain containing 2) — cell gain with vemurafenib = 0.53; lactate per cell with vemurafenib = 0.45; outcome = inactive
C11orf71 (chromosome 11 open reading frame 71) — cell gain with vemurafenib = 0.36; lactate per cell with vemurafenib = 1.5; outcome = inactive
HNRNPH3 (heterogeneous nuclear ribonucleoprotein H3) — cell gain with vemurafenib = 0.16; lactate per cell with vemurafenib = 0.5; outcome = inactive
NMBR (neuromedin B receptor) — cell gain with vemurafenib = 0.54; lactate per cell with vemurafenib = 1.24; outcome = inactive
ZFP90 (ZFP90 zinc finger protein) — cell gain with vemurafenib = 0.8; lactate per cell with vemurafenib = 0.46; outcome = inactive
NAA40 (N-alpha-acetyltransferase 40, NatD catalytic subunit) — cell gain with vemurafenib = 0.13; lactate per cell with vemurafenib = 0.48; outcome = active
OR6C1 (olfactory receptor family 6 subfamily C member 1) — cell gain with vemurafenib = 0.29; lactate per cell with vemurafenib = 1.29; outcome = inactive
ZNF846 (zinc finger protein 846) — cell gain with vemurafenib = 0.49; lactate per cell with vemurafenib = 1.12; outcome = inactive
UBE2D2 (ubiquitin conjugating enzyme E2 D2) — cell gain with vemurafenib = 0.56; lactate per cell with vemurafenib = 0.81; outcome = inactive
APOB (apolipoprotein B) — cell gain with vemurafenib = 0.13; lactate per cell with vemurafenib = 1.8; outcome = inactive
PSMA3 (proteasome 20S subunit alpha 3) — cell gain with vemurafenib = -0.02; lactate per cell with vemurafenib = 2.62; outcome = inactive
GLTPD2 (glycolipid transfer protein domain containing 2) — cell gain with vemurafenib = 0.58; lactate per cell with vemurafenib = 1.06; outcome = inactive
TNKS (tankyrase) — cell gain with vemurafenib = 0.85; lactate per cell with vemurafenib = 0.42; outcome = inactive
PGM2L1 (phosphoglucomutase 2 like 1) — cell gain with vemurafenib = 0.3; lactate per cell with vemurafenib = 0.92; outcome = inactive
NOC2L (NOC2 like nucleolar associated transcriptional repressor) — cell gain with vemurafenib = 0.87; lactate per cell with vemurafenib = 1.07; outcome = inactive
LRRFIP2 (LRR binding FLII interacting protein 2) — cell gain with vemurafenib = 0.52; lactate per cell with vemurafenib = 1; outcome = inactive
PTPRT (protein tyrosine phosphatase receptor type T) — cell gain with vemurafenib = 1; lactate per cell with vemurafenib = 0.76; outcome = inactive
CACNA2D2 — cell gain with vemurafenib = 0.55; lactate per cell with vemurafenib = 0.9; outcome = inactive
TXNL4A (thioredoxin like 4A) — cell gain with vemurafenib = 0.27; lactate per cell with vemurafenib = 0.74; outcome = inactive
CPNE2 (copine 2) — cell gain with vemurafenib = 0.74; lactate per cell with vemurafenib = 0.63; outcome = inactive
CIB1 (calcium and integrin binding 1) — cell gain with vemurafenib = 0.15; lactate per cell with vemurafenib = 2.44; outcome = inactive
SEPTIN5 (septin 5) — cell gain with vemurafenib = 0.68; lactate per cell with vemurafenib = 0.94; outcome = inactive
BMI1 (BMI1 proto-oncogene, polycomb ring finger) — cell gain with vemurafenib = 1.13; lactate per cell with vemurafenib = 0.67; outcome = inactive
CHCHD2 (coiled-coil-helix-coiled-coil-helix domain containing 2) — cell gain with vemurafenib = 1.08; lactate per cell with vemurafenib = 0.56; outcome = inactive
FXYD4 (FXYD domain containing ion transport regulator 4) — cell gain with vemurafenib = 0.73; lactate per cell with vemurafenib = 0.54; outcome = inactive
HBB (hemoglobin subunit beta) — cell gain with vemurafenib = 0.41; lactate per cell with vemurafenib = 0.82; outcome = inactive
MCOLN2 (mucolipin TRP cation channel 2) — cell gain with vemurafenib = 0.56; lactate per cell with vemurafenib = 1.7; outcome = inactive
TMCO4 (transmembrane and coiled-coil domains 4) — cell gain with vemurafenib = 0.65; lactate per cell with vemurafenib = 0.88; outcome = inactive
PNPLA4 — cell gain with vemurafenib = 0.89; lactate per cell with vemurafenib = 0.88; outcome = inactive
LINC00336 (long independently transcribed non-coding RNA 336) — cell gain with vemurafenib = 1.07; lactate per cell with vemurafenib = 0.73; outcome = inactive

6 of these entries, reformatted.
Target gene	cell gain with vemurafenib	lactate per cell with vemurafenib	outcome
SGK1 (serum/glucocorticoid regulated kinase 1)	1.15	0.92	inactive
LINC02914 (long independently transcribed non-coding RNA 2914)	0.16	1.69	inactive
LRFN3	0.05	1.4	inactive
DNAJB1 (DnaJ heat shock protein family (Hsp40) member B1)	0.67	1.17	inactive
ST3GAL4 (ST3 beta-galactoside alpha-2,3-sialyltransferase 4)	0.47	1.14	inactive
LCN12 (lipocalin 12)	1.09	0.68	inactive
